No constants are given. Whether binding was seen depends on the method and setting. In cells and extracts the contact can be indirect. Some results given as binding are weak or reduced against the parent protein; the word gives no strength.
What was measured:
[1] = biological target: KCa3.1-GFP-myc (in HEK293 cells) (UniProt O89109); experiment: co-IP; HEK293 stably expressing KCa3.1-GFP-myc against non-transfected cells; NP-40 lysis buffer; anti-GFP on Dynabeads Protein G overnight at 4°C; blot with anti-STIM1; basal and after 2 uM thapsigargin and calcium re-addition (SOCE activated)
[2] = biological target: KCa3.1-GFP-myc (cell line not stated for the experiment) (UniProt O89109); experiment: co-IP; co-IP of KCa3.1 (cells with KCa3.1-GFP-myc, NP-40 lysis buffer, anti-GFP or anti-myc on Dynabeads Protein G); cell line and antibody not stated for these experiments (Figure S6A, C, D)

Amino acid sequences for entries named in this document (tags omitted). Residues count along the entry.
UniProt O89109: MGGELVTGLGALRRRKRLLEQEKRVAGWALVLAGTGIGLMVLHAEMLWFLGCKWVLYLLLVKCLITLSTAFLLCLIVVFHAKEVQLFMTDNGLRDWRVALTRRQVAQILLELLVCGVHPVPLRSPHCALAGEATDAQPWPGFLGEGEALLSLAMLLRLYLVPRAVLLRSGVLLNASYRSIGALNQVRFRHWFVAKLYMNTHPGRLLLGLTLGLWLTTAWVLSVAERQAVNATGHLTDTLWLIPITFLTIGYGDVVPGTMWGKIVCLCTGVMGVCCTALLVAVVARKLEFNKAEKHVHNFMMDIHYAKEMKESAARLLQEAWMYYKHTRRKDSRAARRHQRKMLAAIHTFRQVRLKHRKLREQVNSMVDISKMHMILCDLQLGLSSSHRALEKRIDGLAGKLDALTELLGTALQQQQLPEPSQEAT
UniProt Q13586, residues 23-685: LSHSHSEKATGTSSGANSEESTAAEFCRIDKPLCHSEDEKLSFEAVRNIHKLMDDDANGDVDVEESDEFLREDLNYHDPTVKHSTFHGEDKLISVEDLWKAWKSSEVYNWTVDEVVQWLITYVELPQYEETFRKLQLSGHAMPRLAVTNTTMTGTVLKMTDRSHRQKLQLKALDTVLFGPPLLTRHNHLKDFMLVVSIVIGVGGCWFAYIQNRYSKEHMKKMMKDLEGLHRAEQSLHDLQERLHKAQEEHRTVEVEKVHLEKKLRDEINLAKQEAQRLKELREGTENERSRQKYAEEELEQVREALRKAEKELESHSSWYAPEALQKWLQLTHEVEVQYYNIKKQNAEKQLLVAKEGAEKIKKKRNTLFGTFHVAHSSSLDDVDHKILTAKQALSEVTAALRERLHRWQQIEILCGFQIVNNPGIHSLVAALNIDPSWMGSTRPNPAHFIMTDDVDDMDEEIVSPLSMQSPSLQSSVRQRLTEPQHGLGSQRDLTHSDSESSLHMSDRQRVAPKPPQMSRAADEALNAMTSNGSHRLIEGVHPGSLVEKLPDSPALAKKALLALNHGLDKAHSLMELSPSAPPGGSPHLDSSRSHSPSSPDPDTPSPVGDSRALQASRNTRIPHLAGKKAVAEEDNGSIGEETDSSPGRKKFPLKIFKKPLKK
UniProt Q96D31: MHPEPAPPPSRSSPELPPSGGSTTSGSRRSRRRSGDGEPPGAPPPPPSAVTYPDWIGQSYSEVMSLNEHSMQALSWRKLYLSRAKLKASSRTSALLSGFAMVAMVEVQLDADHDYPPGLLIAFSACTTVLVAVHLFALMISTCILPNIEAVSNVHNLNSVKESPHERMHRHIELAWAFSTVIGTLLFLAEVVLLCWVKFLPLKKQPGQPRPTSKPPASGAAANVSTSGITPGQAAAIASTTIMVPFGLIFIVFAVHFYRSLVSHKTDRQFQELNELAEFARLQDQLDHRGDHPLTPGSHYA

binding [1] | binding [2] | Substance
binds | – | STIM1 (in HEK293 cells) (from UniProt Q13586 23-685)
– | no binding | Orai1 (from UniProt Q96D31 1-301)

— article PMC12435150
